Experimental data as given in article doi:10.1101/2021.09.16.460581.
No constants are given. Whether binding was seen depends on the method and setting. Binding seen in cells or lysates may run through a third protein. Some results given as binding are weak or reduced against the parent protein; the word gives no strength. For some assays here: Sequences can lack the tags named with a protein.

Protein sequences, listed by entry. Tags and fused reporters are not part of them.
UniProt Q12329: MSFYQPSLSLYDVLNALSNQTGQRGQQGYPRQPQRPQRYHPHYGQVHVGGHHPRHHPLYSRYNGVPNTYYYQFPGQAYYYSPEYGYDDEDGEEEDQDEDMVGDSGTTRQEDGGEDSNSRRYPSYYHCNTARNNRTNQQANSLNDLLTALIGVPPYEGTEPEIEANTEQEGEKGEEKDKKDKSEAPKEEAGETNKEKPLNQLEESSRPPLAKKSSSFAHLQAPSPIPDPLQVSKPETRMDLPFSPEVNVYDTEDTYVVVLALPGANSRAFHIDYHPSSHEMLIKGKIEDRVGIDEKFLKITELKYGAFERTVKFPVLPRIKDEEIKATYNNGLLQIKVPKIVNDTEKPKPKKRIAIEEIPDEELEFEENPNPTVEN
UniProt P29469: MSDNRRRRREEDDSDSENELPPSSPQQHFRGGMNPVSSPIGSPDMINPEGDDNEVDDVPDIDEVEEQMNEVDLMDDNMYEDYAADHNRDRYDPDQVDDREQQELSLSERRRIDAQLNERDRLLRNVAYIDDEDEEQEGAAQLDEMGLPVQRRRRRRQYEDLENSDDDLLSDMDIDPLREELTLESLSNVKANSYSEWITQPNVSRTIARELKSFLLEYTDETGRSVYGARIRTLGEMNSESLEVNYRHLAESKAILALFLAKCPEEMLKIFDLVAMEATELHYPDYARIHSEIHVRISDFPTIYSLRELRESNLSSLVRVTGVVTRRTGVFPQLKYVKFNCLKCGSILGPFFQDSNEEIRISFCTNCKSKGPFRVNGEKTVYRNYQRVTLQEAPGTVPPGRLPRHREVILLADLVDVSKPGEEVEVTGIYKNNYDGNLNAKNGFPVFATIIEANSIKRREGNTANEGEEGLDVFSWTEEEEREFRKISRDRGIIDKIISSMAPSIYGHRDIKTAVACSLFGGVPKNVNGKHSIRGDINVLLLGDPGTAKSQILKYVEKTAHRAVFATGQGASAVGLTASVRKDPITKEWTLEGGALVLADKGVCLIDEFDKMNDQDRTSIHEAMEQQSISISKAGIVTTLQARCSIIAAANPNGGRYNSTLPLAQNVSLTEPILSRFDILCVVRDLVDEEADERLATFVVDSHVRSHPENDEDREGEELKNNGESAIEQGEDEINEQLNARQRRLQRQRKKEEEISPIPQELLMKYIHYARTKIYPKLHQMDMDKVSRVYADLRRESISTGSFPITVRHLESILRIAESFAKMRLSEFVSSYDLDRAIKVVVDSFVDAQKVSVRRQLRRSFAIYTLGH

What was measured:
Btn2-VN (S. cerevisiae) = molecular target: T1, Btn2-VN (S. cerevisiae) (UniProt P53286); assay: split reporter
T1 sequence: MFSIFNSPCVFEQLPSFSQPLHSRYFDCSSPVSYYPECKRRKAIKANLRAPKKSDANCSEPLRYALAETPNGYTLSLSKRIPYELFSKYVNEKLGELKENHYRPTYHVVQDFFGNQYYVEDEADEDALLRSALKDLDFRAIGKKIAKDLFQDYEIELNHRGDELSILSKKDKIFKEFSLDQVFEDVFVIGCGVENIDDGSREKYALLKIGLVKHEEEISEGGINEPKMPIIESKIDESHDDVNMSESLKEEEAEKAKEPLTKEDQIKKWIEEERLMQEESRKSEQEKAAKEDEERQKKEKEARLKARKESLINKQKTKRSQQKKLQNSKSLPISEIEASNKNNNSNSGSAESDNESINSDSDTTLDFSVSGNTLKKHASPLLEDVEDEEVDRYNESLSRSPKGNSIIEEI

[1] = molecular target: T2, Mrc1-FLAG (S. cerevisiae) (UniProt P25588); assay: co-IP
T2 sequence: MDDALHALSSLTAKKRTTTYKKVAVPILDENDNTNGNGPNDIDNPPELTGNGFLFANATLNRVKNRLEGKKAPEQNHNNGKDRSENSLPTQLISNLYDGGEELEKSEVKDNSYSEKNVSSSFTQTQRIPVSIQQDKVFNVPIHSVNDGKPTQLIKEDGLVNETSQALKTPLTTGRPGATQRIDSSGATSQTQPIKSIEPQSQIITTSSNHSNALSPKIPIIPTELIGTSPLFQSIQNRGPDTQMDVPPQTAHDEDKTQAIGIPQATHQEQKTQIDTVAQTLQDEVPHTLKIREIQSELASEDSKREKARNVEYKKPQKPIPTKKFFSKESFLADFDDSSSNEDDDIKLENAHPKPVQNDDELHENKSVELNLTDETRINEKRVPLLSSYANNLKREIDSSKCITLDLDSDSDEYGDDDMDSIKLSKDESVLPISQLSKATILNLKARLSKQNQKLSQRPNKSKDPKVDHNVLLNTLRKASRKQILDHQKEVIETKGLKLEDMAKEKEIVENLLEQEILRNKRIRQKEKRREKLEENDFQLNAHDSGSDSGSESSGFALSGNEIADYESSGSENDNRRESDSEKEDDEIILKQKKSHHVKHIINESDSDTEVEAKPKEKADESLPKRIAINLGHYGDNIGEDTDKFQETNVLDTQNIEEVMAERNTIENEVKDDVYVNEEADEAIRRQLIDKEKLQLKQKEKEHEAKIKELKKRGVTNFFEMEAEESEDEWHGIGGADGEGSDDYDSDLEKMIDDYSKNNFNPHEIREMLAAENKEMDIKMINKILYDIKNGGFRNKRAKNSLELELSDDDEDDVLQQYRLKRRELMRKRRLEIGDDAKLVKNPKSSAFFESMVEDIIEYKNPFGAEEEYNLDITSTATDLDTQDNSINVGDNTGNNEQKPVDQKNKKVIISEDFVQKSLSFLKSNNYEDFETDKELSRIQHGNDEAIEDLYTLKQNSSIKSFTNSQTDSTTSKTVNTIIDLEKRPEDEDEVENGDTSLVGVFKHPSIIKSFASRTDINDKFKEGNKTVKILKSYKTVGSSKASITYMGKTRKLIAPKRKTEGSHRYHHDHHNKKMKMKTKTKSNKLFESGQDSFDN

[2] = molecular target: T3, Mrc1-VC/VN (S. cerevisiae) (UniProt P25588); assay: split reporter
T3 sequence: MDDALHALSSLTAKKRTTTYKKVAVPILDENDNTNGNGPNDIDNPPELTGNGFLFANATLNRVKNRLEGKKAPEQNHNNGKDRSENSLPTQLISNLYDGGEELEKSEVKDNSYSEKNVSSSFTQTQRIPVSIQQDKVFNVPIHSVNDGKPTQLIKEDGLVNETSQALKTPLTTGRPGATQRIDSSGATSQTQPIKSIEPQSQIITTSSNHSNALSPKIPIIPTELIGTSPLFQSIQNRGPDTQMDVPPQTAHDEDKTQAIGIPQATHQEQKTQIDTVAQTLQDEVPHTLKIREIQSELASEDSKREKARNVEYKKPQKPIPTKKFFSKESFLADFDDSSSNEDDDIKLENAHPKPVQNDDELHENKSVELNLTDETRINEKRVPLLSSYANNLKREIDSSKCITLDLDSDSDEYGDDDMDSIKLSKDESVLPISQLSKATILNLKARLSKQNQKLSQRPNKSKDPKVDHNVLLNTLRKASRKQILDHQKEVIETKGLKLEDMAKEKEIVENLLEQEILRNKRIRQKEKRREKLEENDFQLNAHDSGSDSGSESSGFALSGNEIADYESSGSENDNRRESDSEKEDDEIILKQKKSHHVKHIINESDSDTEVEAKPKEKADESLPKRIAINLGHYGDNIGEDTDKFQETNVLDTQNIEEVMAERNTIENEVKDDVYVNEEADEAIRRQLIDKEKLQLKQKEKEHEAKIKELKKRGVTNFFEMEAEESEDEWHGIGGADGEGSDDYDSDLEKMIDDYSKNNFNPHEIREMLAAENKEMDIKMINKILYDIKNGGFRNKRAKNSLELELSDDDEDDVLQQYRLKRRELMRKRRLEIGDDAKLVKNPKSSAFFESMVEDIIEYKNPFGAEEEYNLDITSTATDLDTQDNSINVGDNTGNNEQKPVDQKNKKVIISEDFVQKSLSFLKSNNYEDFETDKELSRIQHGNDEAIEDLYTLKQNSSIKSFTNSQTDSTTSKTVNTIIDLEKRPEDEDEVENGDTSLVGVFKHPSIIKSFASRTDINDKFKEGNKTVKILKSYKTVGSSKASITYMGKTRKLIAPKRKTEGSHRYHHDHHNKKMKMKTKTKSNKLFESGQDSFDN

| binding [1] | binding [2] | further results | Molecule |
| --- | --- | --- | --- |
| – | – | binding (Btn2-VN (S. cerevisiae)): binds | Hsp42 (BiFC fusion) (from UniProt Q12329 1-375) |
| binds | – | – | Mcm2 (from UniProt P29469 1-868) |
| binds | – | – | Ctf4 (protein, UniProt Q01454 1-927) MVSVIDKLVFDFGGKTLVSLAPDNNTLCVANKNGLTKILKTNNPEEEPETLDSSKLVSSIKCYSNSHFLMTTMQGDALRYNIDSSQEELLARFALPLRDCCVIHSGKMAVFGGDDLELILLELDDETHKKHAIKIDEQVSQISYNSQMNILAVSMINGKVQIFSLTSTIPNKVHELNDYIVANSYDDTHRDKILSNMMDDIDKDNDNDLSETADPDENNVADPEFCAANRICTRVAWHPKGLHFALPCADDTVKIFSIKGYSLQKTLSTNLSSTKAHFIDLQFDPLRGTYIAAVDLNNKLTVWNWETSEIHYTREFKRKITNIAWKIQADSKTLDLVLGTWSGSIAIVQNLAESVVSNIPDQSVAESSTKHGLFVDSESDLENLEGNDDINKSDKLFSDITQEANAEDVFTQTHDGPSGLSEKRKYNFEDEEDFIDDDDGAGYISGKKPHNEHSYSRVHKTHSFPISLANTGKFRYMPFSPAGTPFGFTDRRYLTMNEVGYVSTVKNSEQYSITVSFFDVGRFREYHFEDLFGYDLCFLNEKGTLFGQSKTGQIQYRPHDSIHSNWTKIIPLQAGERITSVAATPVRVIVGTSLGYFRSFNQFGVPFAVEKTSPIVALTAQNYRVFSVHYSQFHGLSYSLSELGTSSKRYYKRECPLPMSLPNINSDMKKDANLDYYNFNPMGIKSLFFSSYGDPCIFGSDNTLLLLSKWRSPEESKWLPILDSNMEIWKMSGGKETTDIHVWPLALAYDTLNCILVKGKHIWPEFPLPLPSEMEIRMPVFVKSKLLEENKAILNKKNEIGADTEAEEGEEDKEIQIPVSMAAEEEYLRSKVLSELLTDTLENDGEMYGNENEVLAALNGAYDKALLRLFASACSDQNVEKALSLAHELKQDRALTAAVKISERAELPSLVKKINNIREARYEQQLK |
| binds | – | – | Cdc45 (protein, UniProt Q08032 1-650) MYYGISQFSEAYNKILRNSSSHSSCQLVIFVSCLNIDALCATKMLSLLFKKQLVQSQIVPIFGYSELRRHYSQLDDNINSLLLVGFGGVIDLEAFLEIDPQEYVIDTDEKSGEQSFRRDIYVLDAHRPWNLDNIFGSQIIQCFDDGTVDDTLGEQKEAYYKLLELDEESGDDELSGDENDNNGGDDEATDADEVTDEDEEDEDETISNKRGNSSIGPNDLSKRKQRKKQIHEYEGVLEEYYSQGTTVVNSISAQIYSLLSAIGETNLSNLWLNILGTTSLDIAYAQVYNRLYPLLQDEVKRLTPSSRNSVKTPDTLTLNIQPDYYLFLLRHSSLYDSFYYSNYVNAKLSLWNENGKKRLHKMFARMGIPLSTAQETWLYMDHSIKRELGIIFDKNLDRYGLQDIIRDGFVRTLGYRGSISASEFVEALTALLEVGNSTDKDSVKINNDNNDDTDGEEEEDNSAQKLTNLRKRWVSNFWLSWDALDDRKVELLNRGIQLAQDLQRAIFNTGVAILEKKLIKHLRIYRLCVLQDGPDLDLYRNPLTLLRLGNWLIECCAESEDKQLLPMVLASIDENTDTYLVAGLTPRYPRGLDTIHTKKPILNNFSMAFQQITAETDAKVRIDNFESSIIEIRREDLSPFLEKLTLSGLL |
| binds | – | – | Btn2-HA (protein, UniProt P53286 1-410) MFSIFNSPCVFEQLPSFSQPLHSRYFDCSSPVSYYPECKRRKAIKANLRAPKKSDANCSEPLRYALAETPNGYTLSLSKRIPYELFSKYVNEKLGELKENHYRPTYHVVQDFFGNQYYVEDEADEDALLRSALKDLDFRAIGKKIAKDLFQDYEIELNHRGDELSILSKKDKIFKEFSLDQVFEDVFVIGCGVENIDDGSREKYALLKIGLVKHEEEISEGGINEPKMPIIESKIDESHDDVNMSESLKEEEAEKAKEPLTKEDQIKKWIEEERLMQEESRKSEQEKAAKEDEERQKKEKEARLKARKESLINKQKTKRSQQKKLQNSKSLPISEIEASNKNNNSNSGSAESDNESINSDSDTTLDFSVSGNTLKKHASPLLEDVEDEEVDRYNESLSRSPKGNSIIEEI |
| – | binds | – | Btn2-VN (protein, UniProt P53286 1-410) MFSIFNSPCVFEQLPSFSQPLHSRYFDCSSPVSYYPECKRRKAIKANLRAPKKSDANCSEPLRYALAETPNGYTLSLSKRIPYELFSKYVNEKLGELKENHYRPTYHVVQDFFGNQYYVEDEADEDALLRSALKDLDFRAIGKKIAKDLFQDYEIELNHRGDELSILSKKDKIFKEFSLDQVFEDVFVIGCGVENIDDGSREKYALLKIGLVKHEEEISEGGINEPKMPIIESKIDESHDDVNMSESLKEEEAEKAKEPLTKEDQIKKWIEEERLMQEESRKSEQEKAAKEDEERQKKEKEARLKARKESLINKQKTKRSQQKKLQNSKSLPISEIEASNKNNNSNSGSAESDNESINSDSDTTLDFSVSGNTLKKHASPLLEDVEDEEVDRYNESLSRSPKGNSIIEEI |
| – | binds | – | Ubx5-VN/VC (protein, UniProt Q06682 1-500) MSEGKVDEFMAITGADDAAIATQFIEMADGNLNTAISLFFENGGAALLSSNNTPTPSNSTPMAPTSVDSDADAQLAERLQREAYQQQQPDQDYVRPPDEARHEVLTETSGFPISYGGIGGRFEPLHRVNDMFDEGRPESIFNQRLDDTNTNTYINDNSSDSLDSEEENDDDEYEYVEEPVIELDEDGNIKEYTKLVRKPKTISKEQKLALLFRPPFSIMSKLDLDAAKQKARAKQKWIMINIQDSGIFQCQALNRDLWSSRPVKTIIKENFVFLQYQYESRNAQPYLQFYHLNNKDDLPHIAILDPITGERVKQWNRVVPIPEQFISEINEFLASFSLDPKVPNPTVNEPLPKVDPTTLTEEQQMELAIKESLNNNSSKSNQEEVPSTGEEQKRVQEPDPFSTIEARVHPEPPNKPGITTRIQIRTGDGSRLVRRFNALEDTVRTIYEVIKTEMDGFADSRFTLNDHQREDLIDKLNMTIADAGLKNSSLLLEKLDPEIE |
| – | binds | – | Ulp2-VN/VC (protein, UniProt P40537 1-1034) MSARKRKFNSLKPLDTLNSSRASSPRSSASLPPKRYNTFRKDPKIVDHLNNASTKDFLPVLSMNSESKRQIELSDNDVDNNDEGEGVNSGCSDQDFEPLQSSPLKRHSSLKSTSNGLLFQMSNNLGNGSPEPAVASTSPNGSIISTKLNLNGQFSCVDSKTLRIYRHKAPCIMTFVSDHNHPKFSLYFQQSVIYNSQVNLLDDVELIILDKKNSFMAIILKDLKKVKMILDVNNSSININTNILIWSTASSASNKKIKSIKRFLLMSYSSSIKVEILDHKEQILERLKHLIHPISSSSPSLNMERAINSTKNAFDSLRLKKTKLSTNDDESPQIHTHFLSNKPHGLQSLTKRTRIASLGKKEHSISVPKSNISPSDFYNTNGTETLQSHAVSQLRRSNRFKDVSDPANSNSNSEFDDATTEFETPELFKPSLCYKFNDGSSYTITNQDFKCLFNKDWVNDSILDFFTKFYIESSIEKSIIKREQVHLMSSFFYTKLISNPADYYSNVKKWVNNTDLFSKKYVVIPINISYHWFSCIITNLDAILDFHQNKDKNDAINSDEISINNPLVNILTFDSLRQTHSREIDPIKEFLISYALDKYSIQLDKTQIKMKTCPVPQQPNMSDCGVHVILNIRKFFENPVETIDVWKNSKIKSKHFTAKMINKYFDKNERNSARKNLRHTLKLLQLNYISYLKKENLYEEVMQMEEKKSTNINNNENYDDDDEEIQIIENIDQSSKDNNAQLTSEPPCSRSSSISTTEREPTELHNSVVRQPTGEIITDNEDPVRAASPETASVSPPIRHNILKSSSPFISESANETEQEEFTSPYFGRPSLKTRAKQFEGVSSPIKNDQALSSTHDIMMPSPKPKRIYPSKKIPQLSSHVQSLSTDSMERQSSPNNTNIVISDTEQDSRLGVNSESKNTSGIVNRDDSDVNLIGSSLPNVAEKNHDNTQESNGNNDSLGKILQNVDKELNEKLVDIDDVAFSSPTRGIPRTSATSKGSNAQLLSNYGDENNQSQDSVWDEGRDNPILLEDEDP |
